Reference: US11998550B2, “Trametinib prevents mesothelial-mesenchymal transition and ameliorates abdominal adhesion and pulmonary fibrosis formation” (Thomas Jefferson University, priority 2017, dated 2024)
For at least one compound, name, drawing or mass did not settle the structure.

What was measured:
mouse lung = assay: Bleomycin lung fibrosis, trichrome-stained lung tissue; assay type: in vivo; conditions: 3 mg/kg trametinib in DMSO by osmotic pump one week after bleomycin, ten days
[1] = test system: rat peritoneal mesothelial cells; assay: TGF-β induced mesothelial/mesenchymal transition (MMT), cell morphology; assay type: cell-based; conditions: TGF-β plus trametinib, five days
Protocol: Isolated mesothelial cells were incubated under control conditions without either TGF-β or trametinib, with TGF-β or trametinib alone, or with both TGF-β and trametinib for five days (FIGS. 1 and 2).
The experiments in this study were approved by the Institutional Animal Care and Use Committee at Thomas Jefferson University, and were performed in accordance with the National Institutes of Health guidelines for the care and handling of laboratory animals. RPMCs were isolated and cultured as described previously. Briefly, Sprague Dawley rats weighing 150 g-250 g, purchased from Jackson Laboratory, were injected intra-peritoneally with 30 ml of 0.25% trypsin/2.21 mM EDTA under Isoflurane anesthesia and were kept on the metal pad warmed to 37° C. for one hour; after which the abdominal fluid was collected and centrifuged at 300 g for 10 minutes. The isolated pelleted cells were re-suspended and cultured in DMEM/F12 medium supplemented with 10% (v/v) FBS at 37° C. in a humidified atmosphere of 5% CO2 in air. The RPMCs, from the fourth to seventh passages (split ratio 1:4), at 90% confluence were used for the experiments. The cells were treated either with 10 ng/ml of TGF-β1 (R&D systems) alone, or with TGF-β1 and the MEK1/2 inhibitor, Trametinib (2 or 5 nM).

C57BL/6 mice = assay: Cecal abrasion model of intra-abdominal adhesion formation, drug by osmotic pump for eight days
[2] = test system: phospho-MEK1/2, phospho-Erk1/2, FNEDA, αSMA, phospho-Smad2 (linker); assay: Western analysis of TGF-β1 treated rat peritoneal mesothelial cells; assay type: cell-based
Protocol: These insights led us to explore the potential mechanisms of action of trametinib using Western blotting analyses (FIG. 2). […] These increases in gene expression of phosphor-Erk 1/2, FNEDA, αSMA and p-SMAD2 (linker) were blocked by as low a concentration of trametinib as 2 nM (FIG. 2).
The experiments in this study were approved by the Institutional Animal Care and Use Committee at Thomas Jefferson University, and were performed in accordance with the National Institutes of Health guidelines for the care and handling of laboratory animals. RPMCs were isolated and cultured as described previously. […]
RPMCs were lysed in ice-cold modified RIPA buffer with protease inhibitor cocktail (50 mM/L Tris-HCl, 1% NP-40, 0.25% Na-deoxycholate, 150 mM/L NaCl, 1 mM/L EDTA, 1 mmol/L phenylmethyl sulfonyl fluoride, 1 mM/L sodium orthovanadate, 1 mM/L NaF, pH 7.4). Equivalent amounts of homogenate (50 μg/well), determined by Coomassie blue assay, were separated by sodium dodecyl sulfate polyacrylamide gel electrophoresis (SDS-PAGE), transferred to either nitrocellulose or PVDF membranes, and detected by SuperSignal West Femto or Pico chemiluminescence.

[3] = test system: Fibroblasts isolated from mouse lungs; assay: qPCR of pro-fibrotic genes in bleomycin-treated lung fibroblasts; assay type: cell-based; conditions: bleomycin-treated lung fibroblasts given 2.5 nM, 5 nM or 10 nM
Excerpt: FIGS. 16A, B, and C further evaluate the ability of trametinib to control lung fibroblases isolated from mouse lung tissue. The three graphs represent expression of several pro-fibrotic genes (type I collagen and FNEDA) and αSMA. Fibroblasts isolated from mouse lungs were placed in cell culture and treated either with saline (control) or bleomycin dissolved in saline and 3 different concentrations of trametinib (2.5, 5 and 10 nano molar) dissolved in DMSO. After treatment with the drug, RNA was extracted and quantified by qPCR. mRNAs for type I collagen (Col1a1), e FNEDA and αSMA are shown. Control values in FIGS. 16 A, B, and C were set to 100%.

[4] = 0.1 mg/kg/day, 8-day post-surgery

## CC(=O)Nc1cccc(-n2c(=O)n(C3CC3)c(=O)c3c(Nc4ccc(I)cc4F)n(C)c(=O)c(C)c32)c1 [trametinib]
Mouse lung
  lung fibrosis, histology: lacks prominent fibrosis
[1]
  effect on TGF-β induced morphological transition (MMT): blocked the effect of TGF-β
C57BL/6 mice; [4]
  FNEDA immunofluorescence in presumptive adhesion region: localizes within the presumptive adhesion region
  αSMA immunofluorescence in presumptive adhesion region: absent
C57BL/6 mice; 0.1 mg/kg/day, day 8 post-surgery
  adhesion formation: formed rare mature adhesions
C57BL/6 mice; 1.0 mg/kg/day, 8-day post-surgery
  adhesion formation: few if any cells associated within these regions
C57BL/6 mice; 3.0 mg/kg/day, day 8 post-surgery
  adhesion formation: did not form adhesions
[2]; 2 or 5 nM trametinib
  phospho-Erk1/2 after stimulation with TGF-β: dramatic reduction
[2]; with or without TGF-β stimulation
  phospho-MEK1/2 expression: unaffected
[3]
  expression of pro-fibrotic genes (Col1a1, FNEDA, αSMA mRNA): either similar results as to control, i.e. even with the bleomycin, damage either did not accrue, or there was a significant reduction in expression of the pro-fibrotic genes
